Data reported in the supplement of paper PMC10849652.
This is one part of the list.

Amino acid sequences for entries named in this document (tags omitted). A change or cut given only in a name is not applied to a line headed by its entry.
UniProt Q16643: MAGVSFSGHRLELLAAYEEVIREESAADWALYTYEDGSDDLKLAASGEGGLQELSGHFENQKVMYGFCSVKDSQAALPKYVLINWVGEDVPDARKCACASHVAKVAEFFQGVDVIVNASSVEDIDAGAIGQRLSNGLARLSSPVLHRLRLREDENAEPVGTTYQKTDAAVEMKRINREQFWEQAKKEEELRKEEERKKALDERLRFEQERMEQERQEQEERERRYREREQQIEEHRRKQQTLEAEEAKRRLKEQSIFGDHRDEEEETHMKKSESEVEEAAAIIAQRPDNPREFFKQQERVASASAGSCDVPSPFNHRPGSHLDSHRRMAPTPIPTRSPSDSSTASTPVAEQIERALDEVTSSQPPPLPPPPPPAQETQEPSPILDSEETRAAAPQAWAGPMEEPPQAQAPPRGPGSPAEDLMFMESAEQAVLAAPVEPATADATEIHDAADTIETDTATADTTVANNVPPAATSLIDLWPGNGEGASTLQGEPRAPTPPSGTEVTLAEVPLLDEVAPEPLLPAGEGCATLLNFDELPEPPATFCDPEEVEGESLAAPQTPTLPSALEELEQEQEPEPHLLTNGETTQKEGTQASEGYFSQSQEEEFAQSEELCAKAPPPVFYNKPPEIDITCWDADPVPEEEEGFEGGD
UniProt O00148, whole entry, looked up: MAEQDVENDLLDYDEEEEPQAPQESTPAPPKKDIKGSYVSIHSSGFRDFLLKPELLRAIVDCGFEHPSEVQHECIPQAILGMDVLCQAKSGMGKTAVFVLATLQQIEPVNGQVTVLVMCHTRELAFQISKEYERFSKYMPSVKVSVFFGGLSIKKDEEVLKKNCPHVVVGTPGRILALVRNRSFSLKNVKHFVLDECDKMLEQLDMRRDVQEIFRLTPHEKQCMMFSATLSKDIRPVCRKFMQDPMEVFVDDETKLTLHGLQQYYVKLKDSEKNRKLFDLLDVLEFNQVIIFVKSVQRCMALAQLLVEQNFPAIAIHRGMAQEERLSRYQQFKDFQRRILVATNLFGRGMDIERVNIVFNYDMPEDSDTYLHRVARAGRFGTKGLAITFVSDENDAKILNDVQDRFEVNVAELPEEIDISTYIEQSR
UniProt Q66K64, whole entry, looked up: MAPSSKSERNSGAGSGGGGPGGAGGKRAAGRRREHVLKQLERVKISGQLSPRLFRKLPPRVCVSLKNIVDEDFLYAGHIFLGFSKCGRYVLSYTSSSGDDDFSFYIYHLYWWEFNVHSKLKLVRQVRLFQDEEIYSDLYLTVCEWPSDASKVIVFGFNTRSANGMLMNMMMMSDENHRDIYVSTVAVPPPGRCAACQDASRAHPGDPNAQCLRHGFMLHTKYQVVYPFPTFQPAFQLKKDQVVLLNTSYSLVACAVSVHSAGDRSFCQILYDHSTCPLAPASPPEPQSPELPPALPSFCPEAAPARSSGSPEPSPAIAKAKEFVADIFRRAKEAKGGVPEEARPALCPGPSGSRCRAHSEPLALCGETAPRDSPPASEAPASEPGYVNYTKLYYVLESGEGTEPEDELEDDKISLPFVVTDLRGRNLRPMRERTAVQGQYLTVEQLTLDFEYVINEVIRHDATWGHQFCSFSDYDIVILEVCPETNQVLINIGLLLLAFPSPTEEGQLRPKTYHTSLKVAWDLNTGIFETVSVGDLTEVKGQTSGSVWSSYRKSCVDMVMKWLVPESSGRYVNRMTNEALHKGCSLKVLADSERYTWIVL
UniProt P07108: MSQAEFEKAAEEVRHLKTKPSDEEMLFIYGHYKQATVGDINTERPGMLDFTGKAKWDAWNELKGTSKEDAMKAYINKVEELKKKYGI
UniProt Q13206, whole entry, looked up: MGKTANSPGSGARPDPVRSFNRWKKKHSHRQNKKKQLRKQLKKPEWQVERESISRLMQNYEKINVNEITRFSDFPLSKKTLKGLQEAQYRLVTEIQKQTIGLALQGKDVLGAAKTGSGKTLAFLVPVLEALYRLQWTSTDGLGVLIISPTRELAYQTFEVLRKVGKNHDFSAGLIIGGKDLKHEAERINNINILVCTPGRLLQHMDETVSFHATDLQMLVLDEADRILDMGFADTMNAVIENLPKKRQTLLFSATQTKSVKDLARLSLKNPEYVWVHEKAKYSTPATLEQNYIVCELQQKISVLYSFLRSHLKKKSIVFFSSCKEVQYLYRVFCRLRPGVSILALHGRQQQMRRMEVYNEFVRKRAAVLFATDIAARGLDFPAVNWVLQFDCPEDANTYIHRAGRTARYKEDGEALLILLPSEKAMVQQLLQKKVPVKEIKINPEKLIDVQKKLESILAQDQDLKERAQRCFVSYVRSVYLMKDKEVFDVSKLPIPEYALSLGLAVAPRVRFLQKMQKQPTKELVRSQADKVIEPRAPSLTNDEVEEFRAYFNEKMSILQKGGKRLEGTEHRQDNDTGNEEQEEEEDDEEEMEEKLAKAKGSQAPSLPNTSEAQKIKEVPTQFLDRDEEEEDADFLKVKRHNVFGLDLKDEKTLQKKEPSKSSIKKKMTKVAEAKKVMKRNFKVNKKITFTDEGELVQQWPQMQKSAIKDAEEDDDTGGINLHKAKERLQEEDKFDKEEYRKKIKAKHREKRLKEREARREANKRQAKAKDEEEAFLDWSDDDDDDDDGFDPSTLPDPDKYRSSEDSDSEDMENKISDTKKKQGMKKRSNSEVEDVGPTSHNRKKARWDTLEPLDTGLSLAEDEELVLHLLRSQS
UniProt Q92564: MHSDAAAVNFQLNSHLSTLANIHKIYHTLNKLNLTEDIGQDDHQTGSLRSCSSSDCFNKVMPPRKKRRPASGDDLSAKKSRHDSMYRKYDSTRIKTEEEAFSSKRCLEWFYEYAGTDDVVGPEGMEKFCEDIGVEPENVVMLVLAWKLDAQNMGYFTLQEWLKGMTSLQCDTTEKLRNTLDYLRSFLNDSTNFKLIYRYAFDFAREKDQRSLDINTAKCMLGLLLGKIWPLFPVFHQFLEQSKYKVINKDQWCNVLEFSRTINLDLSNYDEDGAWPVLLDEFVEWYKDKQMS
UniProt Q96GQ7: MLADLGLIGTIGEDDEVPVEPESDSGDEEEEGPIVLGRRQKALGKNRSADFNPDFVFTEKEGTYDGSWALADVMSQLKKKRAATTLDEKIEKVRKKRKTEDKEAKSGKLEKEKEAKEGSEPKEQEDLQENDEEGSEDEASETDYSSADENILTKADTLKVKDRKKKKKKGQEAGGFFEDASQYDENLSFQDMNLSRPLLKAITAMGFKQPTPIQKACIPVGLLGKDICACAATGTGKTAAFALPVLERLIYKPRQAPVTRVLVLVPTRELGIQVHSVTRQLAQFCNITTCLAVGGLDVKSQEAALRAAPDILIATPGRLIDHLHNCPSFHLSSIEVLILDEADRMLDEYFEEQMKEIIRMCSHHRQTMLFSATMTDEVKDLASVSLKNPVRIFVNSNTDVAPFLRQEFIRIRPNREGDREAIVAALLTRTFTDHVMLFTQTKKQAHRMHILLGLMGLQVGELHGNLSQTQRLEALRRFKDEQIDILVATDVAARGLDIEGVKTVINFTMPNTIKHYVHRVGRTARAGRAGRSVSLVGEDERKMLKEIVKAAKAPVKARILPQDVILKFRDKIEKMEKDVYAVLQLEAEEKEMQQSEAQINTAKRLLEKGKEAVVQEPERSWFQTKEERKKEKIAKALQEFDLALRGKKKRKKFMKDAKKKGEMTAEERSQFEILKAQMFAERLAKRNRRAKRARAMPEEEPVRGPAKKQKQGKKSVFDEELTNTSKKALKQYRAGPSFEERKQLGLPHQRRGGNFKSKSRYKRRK
UniProt Q7Z401: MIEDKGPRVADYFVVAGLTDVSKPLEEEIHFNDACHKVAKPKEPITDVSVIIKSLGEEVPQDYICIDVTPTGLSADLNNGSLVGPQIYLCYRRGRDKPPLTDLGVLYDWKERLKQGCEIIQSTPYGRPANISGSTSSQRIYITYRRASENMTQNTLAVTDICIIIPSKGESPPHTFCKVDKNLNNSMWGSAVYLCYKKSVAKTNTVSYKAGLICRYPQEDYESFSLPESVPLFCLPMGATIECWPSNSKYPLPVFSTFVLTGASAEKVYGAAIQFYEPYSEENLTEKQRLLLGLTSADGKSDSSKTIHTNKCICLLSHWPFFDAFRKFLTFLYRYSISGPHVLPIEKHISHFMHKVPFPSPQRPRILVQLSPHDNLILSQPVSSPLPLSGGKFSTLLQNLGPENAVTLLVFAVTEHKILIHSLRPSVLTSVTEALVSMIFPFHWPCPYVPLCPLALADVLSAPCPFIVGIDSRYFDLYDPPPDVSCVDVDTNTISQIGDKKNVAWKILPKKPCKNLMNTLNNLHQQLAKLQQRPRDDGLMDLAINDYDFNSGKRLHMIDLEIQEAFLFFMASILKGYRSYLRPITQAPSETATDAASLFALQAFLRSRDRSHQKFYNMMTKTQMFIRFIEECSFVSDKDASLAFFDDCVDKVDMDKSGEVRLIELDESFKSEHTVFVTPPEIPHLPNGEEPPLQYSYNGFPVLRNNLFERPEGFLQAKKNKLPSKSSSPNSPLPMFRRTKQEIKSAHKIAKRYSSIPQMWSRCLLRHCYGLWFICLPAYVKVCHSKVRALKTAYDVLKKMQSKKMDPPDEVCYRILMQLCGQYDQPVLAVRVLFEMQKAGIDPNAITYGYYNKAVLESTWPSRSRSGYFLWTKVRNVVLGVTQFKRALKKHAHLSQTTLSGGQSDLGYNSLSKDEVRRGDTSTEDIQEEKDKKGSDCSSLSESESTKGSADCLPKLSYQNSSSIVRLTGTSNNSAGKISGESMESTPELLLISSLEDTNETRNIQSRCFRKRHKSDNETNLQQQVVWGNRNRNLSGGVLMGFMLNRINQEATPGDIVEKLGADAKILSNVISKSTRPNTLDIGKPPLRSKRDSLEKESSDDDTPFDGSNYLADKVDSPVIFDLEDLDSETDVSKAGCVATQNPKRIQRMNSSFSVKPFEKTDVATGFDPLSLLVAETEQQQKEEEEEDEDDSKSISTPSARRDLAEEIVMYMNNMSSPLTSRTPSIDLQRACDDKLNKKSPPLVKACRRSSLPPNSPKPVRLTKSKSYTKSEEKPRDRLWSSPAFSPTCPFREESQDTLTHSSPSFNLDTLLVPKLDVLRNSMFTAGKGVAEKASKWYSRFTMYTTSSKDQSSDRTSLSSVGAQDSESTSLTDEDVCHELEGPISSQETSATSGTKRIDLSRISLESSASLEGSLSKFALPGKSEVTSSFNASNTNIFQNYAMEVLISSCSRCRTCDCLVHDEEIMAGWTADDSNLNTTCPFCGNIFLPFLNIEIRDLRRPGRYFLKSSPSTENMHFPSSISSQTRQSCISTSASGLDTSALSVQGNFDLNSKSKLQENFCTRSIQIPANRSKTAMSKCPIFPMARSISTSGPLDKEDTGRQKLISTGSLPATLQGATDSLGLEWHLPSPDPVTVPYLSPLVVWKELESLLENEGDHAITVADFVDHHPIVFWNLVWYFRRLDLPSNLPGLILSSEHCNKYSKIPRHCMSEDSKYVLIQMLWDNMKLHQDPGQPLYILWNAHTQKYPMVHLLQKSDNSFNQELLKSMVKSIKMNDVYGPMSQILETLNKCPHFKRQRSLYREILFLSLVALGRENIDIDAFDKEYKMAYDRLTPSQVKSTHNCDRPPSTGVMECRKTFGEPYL
UniProt Q14118: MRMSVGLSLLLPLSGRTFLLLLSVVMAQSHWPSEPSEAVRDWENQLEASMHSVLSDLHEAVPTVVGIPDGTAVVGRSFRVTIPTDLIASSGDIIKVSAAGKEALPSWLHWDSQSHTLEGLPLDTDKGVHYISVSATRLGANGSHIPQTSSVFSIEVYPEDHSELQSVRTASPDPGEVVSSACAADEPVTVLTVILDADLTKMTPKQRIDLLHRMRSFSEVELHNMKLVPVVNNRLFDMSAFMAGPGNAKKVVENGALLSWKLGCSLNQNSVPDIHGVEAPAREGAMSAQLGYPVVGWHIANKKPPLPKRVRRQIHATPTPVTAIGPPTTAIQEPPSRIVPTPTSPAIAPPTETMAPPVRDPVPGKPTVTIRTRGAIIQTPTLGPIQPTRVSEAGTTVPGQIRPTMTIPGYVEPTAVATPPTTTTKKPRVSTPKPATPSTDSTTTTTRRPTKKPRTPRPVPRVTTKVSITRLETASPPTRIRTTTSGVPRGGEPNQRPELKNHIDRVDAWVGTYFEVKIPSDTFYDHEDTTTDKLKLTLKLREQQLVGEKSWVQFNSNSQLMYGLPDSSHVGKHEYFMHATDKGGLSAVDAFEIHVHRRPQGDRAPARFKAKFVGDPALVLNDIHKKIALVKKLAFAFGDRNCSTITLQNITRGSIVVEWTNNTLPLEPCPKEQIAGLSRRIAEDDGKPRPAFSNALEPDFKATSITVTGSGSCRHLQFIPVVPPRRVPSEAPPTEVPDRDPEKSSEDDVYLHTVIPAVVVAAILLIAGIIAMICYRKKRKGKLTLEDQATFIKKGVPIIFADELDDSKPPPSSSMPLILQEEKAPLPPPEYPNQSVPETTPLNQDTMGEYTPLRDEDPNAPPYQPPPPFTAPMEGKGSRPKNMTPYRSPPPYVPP
UniProt P61803: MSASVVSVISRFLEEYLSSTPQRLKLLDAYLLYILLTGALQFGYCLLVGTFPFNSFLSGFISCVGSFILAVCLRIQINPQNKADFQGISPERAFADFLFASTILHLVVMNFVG

compound: Cc1ccc(-n2nc(C(C)(C)C)cc2NC(=O)Nc2ccc(OCCN3CCOCC3)c3ccccc23)cc1 [doramapimod]; test: log2 fold change, soluble protein after heating vs DMSO (PISA); higher = thermal stabilisation; K562 lysate, 10 uM; active = over 0.2 and 3.5 SD of the protein, either way, in both replicates (recomputed)
How it was run: (§1)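 Quantification was by TMTpro 16plex LC-MS/MS with equalised channel sums, applied to the supernatant after 21,000xg for 90 min. Samples were crude K562 extract at 1 mg/mL protein in PBS pH 7.4 with 1 mM MgCl2, treated with 10 μM compound for 30 min, heated for 3 min across 48°C-58°C, pooled and brought to 0.5% NP-40 at 4°C. Values are log-two fold changes in thermal stability relative to solvent controls, from duplicates.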

Target	log2 fold change
DDX56 (UniProt Q9NY93)	inactive: 0.024
DARS (UniProt P14868)	inactive: 0.015
DBN1 (UniProt Q16643)	inactive: -0.02
DDX39A (UniProt O00148)	inactive: -0.046
DCAF15 (UniProt Q66K64)	inactive: -0.028
DBI isoform 5 (UniProt P07108)	inactive: -0.024
DDX46 (UniProt Q7L014)	inactive: 0.056
DDX10 (UniProt Q13206)	inactive: -0.157
DCUN1D4 isoform 3 (UniProt Q92564)	inactive: 0.004
DDX27 (UniProt Q96GQ7)	inactive: -0.001
DENND4A isoform 2 (UniProt Q7Z401)	inactive: -0.009
DAG1 (UniProt Q14118)	inactive: 0.013

compound: Cc1ccc(NC(=O)c2ccc(CN3CC[C@H](N(C)C)C3)c(C(F)(F)F)c2)cc1Nc1nccc(-c2cncnc2)n1 [bafetinib]; test: as above
How it was run: as §1

Target	log2 fold change
DDRGK1 (UniProt Q96HY6)	inactive: -0.019
DCTN1 (UniProt Q14203)	inactive: -0.023
DCTN2 (UniProt Q13561)	inactive: 0.157
DDX21 (UniProt Q9NR30)	inactive: -0.017
DCXR (UniProt Q7Z4W1)	inactive: -0.059
DDX20 (UniProt Q9UHI6)	inactive: -0.016
DEF6 (UniProt Q9H4E7)	inactive: 0.151
DCTN3 (UniProt O75935)	inactive: -0.022
DENND4C (UniProt Q5VZ89)	inactive: -0.041
DDB1 (UniProt Q16531)	inactive: 0.018
DFFA (UniProt O00273)	inactive: 0.045
DCP2 (UniProt Q8IU60)	inactive: -0.062
DDX54 isoform 2 (UniProt Q8TDD1)	inactive: 0.11
CYSTM1 (UniProt Q9H1C7)	inactive: 0.206
DEK (UniProt P35659)	inactive: 0.004
DCTD isoform 2 (UniProt P32321)	inactive: 0.011
DDHD1 (UniProt Q8NEL9)	inactive: 0.015
CYP24A1 (UniProt Q07973)	inactive: -0.209

Target	log2 fold change
D2HGDH (UniProt Q8N465)	inactive: -0.02
DAD1 (UniProt P61803)	inactive: -0.126
DERL1 (UniProt Q9BUN8)	inactive: 0.006
DECR1 (UniProt Q16698)	inactive: 0.006
DCTPP1 (UniProt Q9H773)	inactive: -0.008
DDX24 (UniProt Q9GZR7)	inactive: -0.084
DDX56 (UniProt Q9NY93)	inactive: -0.037
DARS (UniProt P14868)	inactive: -0.011
DBN1 (UniProt Q16643)	inactive: -0.018
DDX39A (UniProt O00148)	inactive: -0.004
DCAF15 (UniProt Q66K64)	inactive: 0.084
DBI isoform 5 (UniProt P07108)	inactive: -0.027
DDX46 (UniProt Q7L014)	inactive: -0.021
DDX10 (UniProt Q13206)	inactive: 0.12
DCUN1D4 isoform 3 (UniProt Q92564)	inactive: -0.003
DDX27 (UniProt Q96GQ7)	inactive: -0.006
DENND4A isoform 2 (UniProt Q7Z401)	inactive: -0.064
DAG1 (UniProt Q14118)	inactive: -0.032

compound: Cc1cccc(CC(=O)N2CCc3c2ccc(-c2cn(C)c4ncnc(N)c24)c3F)n1; test: as above
How it was run: as §1

Target	log2 fold change
DDRGK1 (UniProt Q96HY6)	inactive: -0.03
DCTN1 (UniProt Q14203)	inactive: -0.005
DCTN2 (UniProt Q13561)	inactive: -0.013
DDX21 (UniProt Q9NR30)	inactive: 0.054
DCXR (UniProt Q7Z4W1)	inactive: 0.011
DDX20 (UniProt Q9UHI6)	inactive: 0.054
DEF6 (UniProt Q9H4E7)	inactive: 0.188
DCTN3 (UniProt O75935)	inactive: -0.024
DENND4C (UniProt Q5VZ89)	inactive: 0.01
DDB1 (UniProt Q16531)	inactive: -0.034
DFFA (UniProt O00273)	inactive: -0.029
DCP2 (UniProt Q8IU60)	inactive: -0.041
DDX54 isoform 2 (UniProt Q8TDD1)	inactive: 0.101
CYSTM1 (UniProt Q9H1C7)	inactive: 0.035
DEK (UniProt P35659)	inactive: -0.02
DCTD isoform 2 (UniProt P32321)	inactive: -0.036
DDHD1 (UniProt Q8NEL9)	inactive: 0.054
CYP24A1 (UniProt Q07973)	inactive: 0.325

Target	log2 fold change
D2HGDH (UniProt Q8N465)	inactive: 0.124
DAD1 (UniProt P61803)	inactive: 0.055
DERL1 (UniProt Q9BUN8)	inactive: 0
DECR1 (UniProt Q16698)	inactive: 0.013
DCTPP1 (UniProt Q9H773)	inactive: 0.025
DDX24 (UniProt Q9GZR7)	inactive: 0.056
DDX56 (UniProt Q9NY93)	inactive: 0.021
DARS (UniProt P14868)	inactive: 0.008
DBN1 (UniProt Q16643)	inactive: -0.053
DDX39A (UniProt O00148)	inactive: 0.093
DCAF15 (UniProt Q66K64)	inactive: -0.025
DBI isoform 5 (UniProt P07108)	inactive: -0.104
DDX46 (UniProt Q7L014)	inactive: 0.067
DDX10 (UniProt Q13206)	inactive: -0.026
DCUN1D4 isoform 3 (UniProt Q92564)	inactive: -0.039
DDX27 (UniProt Q96GQ7)	inactive: 0.041
DENND4A isoform 2 (UniProt Q7Z401)	inactive: 0.203
DAG1 (UniProt Q14118)	inactive: 0.029
